Measured values from doi:10.1101/2019.12.20.869974.
Results are given in words; binding and its absence hold for the method and conditions named. In cells and extracts the contact can be indirect. Some entries that bind do so weakly or less than the wild type. For some assays here: Tags and fused reporters may be left off the sequences shown. Blank lines part the entries; values can stand above or below the binder they belong to.

What was measured:
[1] = biological target: T1, carbohydrate responsive element-binding protein alpha (ChREBPα), full-length (mouse) (UniProt Q99MZ3); assay: co-IP
T1 sequence: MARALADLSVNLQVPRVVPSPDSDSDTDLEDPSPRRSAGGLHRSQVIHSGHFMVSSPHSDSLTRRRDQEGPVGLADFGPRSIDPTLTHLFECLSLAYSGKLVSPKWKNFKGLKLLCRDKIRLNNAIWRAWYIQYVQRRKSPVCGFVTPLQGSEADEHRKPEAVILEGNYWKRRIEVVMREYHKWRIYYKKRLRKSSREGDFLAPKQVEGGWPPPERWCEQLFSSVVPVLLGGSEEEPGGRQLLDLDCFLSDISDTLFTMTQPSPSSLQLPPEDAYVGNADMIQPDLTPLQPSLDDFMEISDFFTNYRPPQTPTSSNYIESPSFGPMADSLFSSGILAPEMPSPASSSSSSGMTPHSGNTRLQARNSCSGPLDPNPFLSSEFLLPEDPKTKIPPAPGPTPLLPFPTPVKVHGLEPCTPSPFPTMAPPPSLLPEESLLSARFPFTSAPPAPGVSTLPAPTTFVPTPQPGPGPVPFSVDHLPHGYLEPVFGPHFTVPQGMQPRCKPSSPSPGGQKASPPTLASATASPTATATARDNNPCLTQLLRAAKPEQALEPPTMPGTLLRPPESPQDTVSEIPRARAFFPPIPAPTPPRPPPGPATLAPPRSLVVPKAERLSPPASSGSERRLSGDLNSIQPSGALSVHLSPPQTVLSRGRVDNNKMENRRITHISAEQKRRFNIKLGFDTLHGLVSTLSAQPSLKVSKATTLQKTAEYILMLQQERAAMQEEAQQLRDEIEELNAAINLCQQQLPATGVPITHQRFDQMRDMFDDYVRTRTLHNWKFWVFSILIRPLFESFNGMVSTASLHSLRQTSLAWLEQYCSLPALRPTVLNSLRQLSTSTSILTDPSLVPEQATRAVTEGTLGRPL

[2] = biological target: T2, liver X receptor alpha (LXRα), full-length (not stated (human or mouse cDNA cloned)) (UniProt Q13133); assay: co-IP
T2 sequence: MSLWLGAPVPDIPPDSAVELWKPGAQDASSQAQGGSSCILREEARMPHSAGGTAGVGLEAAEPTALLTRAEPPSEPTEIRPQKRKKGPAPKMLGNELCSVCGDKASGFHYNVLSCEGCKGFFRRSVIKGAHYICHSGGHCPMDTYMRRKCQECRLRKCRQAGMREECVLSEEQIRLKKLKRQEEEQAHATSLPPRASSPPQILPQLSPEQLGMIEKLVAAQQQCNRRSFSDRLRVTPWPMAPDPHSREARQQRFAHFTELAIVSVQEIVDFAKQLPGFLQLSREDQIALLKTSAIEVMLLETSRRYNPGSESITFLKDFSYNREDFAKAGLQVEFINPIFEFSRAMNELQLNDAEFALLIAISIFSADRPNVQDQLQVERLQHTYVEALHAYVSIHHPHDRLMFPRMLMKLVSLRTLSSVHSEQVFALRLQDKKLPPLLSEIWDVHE

binding [1]: binds
B1: liver X receptor beta (LXRβ) (protein, UniProt P55055 1-460)
chain: MSSPTTSSLDTPLPGNGPPQPGAPSSSPTVKEEGPEPWPGGPDPDVPGTDEASSACSTDWVIPDPEEEPERKRKKGPAPKMLGHELCRVCGDKASGFHYNVLSCEGCKGFFRRSVVRGGARRYACRGGGTCQMDAFMRRKCQQCRLRKCKEAGMREQCVLSEEQIRKKKIRKQQQESQSQSQSPVGPQGSSSSASGPGASPGGSEAGSQGSGEGEGVQLTAAQELMIQQLVAAQLQCNKRSFSDQPKVTPWPLGADPQSRDARQQRFAHFTELAIISVQEIVDFAKQVPGFLQLGREDQIALLKASTIEIMLLETARRYNHETECITFLKDFTYSKDDFHRAGLQVEFINPIFEFSRAMRRLGLDDAEYALLIAINIFSADRPNVQEPGRVEALQQPYVEALLSYTRIKRPQDQLRFPRMLMKLVSLRTLSSVHSEQVFALRLQDKKLPPLLSEIWDVHE

binding [1]: binds
B3: liver X receptor alpha (LXRα), full-length (protein, UniProt Q13133 1-447)
chain: T2 sequence

The next lines start with the binder.

B2: ChREBPα low glucose inhibitory domain (LID), amino acids 1-178 (domain or fragment, UniProt Q99MZ3-1 1-178)
chain: MARALADLSVNLQVPRVVPSPDSDSDTDLEDPSPRRSAGGLHRSQVIHSGHFMVSSPHSDSLTRRRDQEGPVGLADFGPRSIDPTLTHLFECLSLAYSGKLVSPKWKNFKGLKLLCRDKIRLNNAIWRAWYIQYVQRRKSPVCGFVTPLQGSEADEHRKPEAVILEGNYWKRRIEVVM
binding [2]: binds

B4: LXRα truncation, amino acids 166-447 (C-terminus with hinge domain and LBD) (domain or fragment, UniProt Q13133 166-447)
chain: ECVLSEEQIRLKKLKRQEEEQAHATSLPPRASSPPQILPQLSPEQLGMIEKLVAAQQQCNRRSFSDRLRVTPWPMAPDPHSREARQQRFAHFTELAIVSVQEIVDFAKQLPGFLQLSREDQIALLKTSAIEVMLLETSRRYNPGSESITFLKDFSYNREDFAKAGLQVEFINPIFEFSRAMNELQLNDAEFALLIAISIFSADRPNVQDQLQVERLQHTYVEALHAYVSIHHPHDRLMFPRMLMKLVSLRTLSSVHSEQVFALRLQDKKLPPLLSEIWDVHE
binding [1]: binds

B5: carbohydrate responsive element-binding protein alpha (ChREBPα), full-length (protein, UniProt Q99MZ3-1 1-864)
chain: T1 sequence
binding [2]: binds
